Data reported in patent US20260263606A1 (priority 2022, published 2026).
At least one compound was matched to its structure with a doubt left.

Sequences of proteins named here, by UniProt entry; tags and fusion partners are left off.
UniProt Q86U44, whole entry: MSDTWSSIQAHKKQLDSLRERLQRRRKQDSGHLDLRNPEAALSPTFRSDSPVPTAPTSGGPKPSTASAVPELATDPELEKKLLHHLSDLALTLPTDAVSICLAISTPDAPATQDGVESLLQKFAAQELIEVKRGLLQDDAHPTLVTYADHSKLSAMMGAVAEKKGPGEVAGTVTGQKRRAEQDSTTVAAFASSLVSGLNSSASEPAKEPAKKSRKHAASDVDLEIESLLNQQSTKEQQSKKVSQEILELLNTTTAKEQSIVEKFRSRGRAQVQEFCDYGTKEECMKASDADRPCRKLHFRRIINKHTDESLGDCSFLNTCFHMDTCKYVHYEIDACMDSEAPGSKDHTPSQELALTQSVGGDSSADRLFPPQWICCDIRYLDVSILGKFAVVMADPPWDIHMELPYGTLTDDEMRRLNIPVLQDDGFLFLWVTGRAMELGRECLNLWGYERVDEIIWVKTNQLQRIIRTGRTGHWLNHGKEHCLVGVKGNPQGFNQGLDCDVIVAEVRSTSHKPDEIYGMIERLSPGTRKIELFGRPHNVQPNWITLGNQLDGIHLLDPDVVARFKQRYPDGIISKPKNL

Target: METTL3-METTL14 (Homo sapiens, UniProt Q86U44)
Conditions: from TR-FRET IC50

With `CC1(C)CCN(Cc2ccc(N3CC(=O)NC4(CCN(c5nc(Cl)nc6[nH]ccc56)CC4)C3)cc2)CC1` [Compound 19, 9-(2-Chloro-7H-pyrrolo[2,3-d]pyrimidin-4-yl)-4-(4-((4,4-dimethylpiperidin-1-yl)methyl)phenyl)-1,4,9-triazaspiro[5.5]undecan-2-one] the “LE (ligand efficiency)” value was 0.28 kcal.mol^−1 heavy atom count^−1.
